Data on one substance can be found in patent US20210355166A1 (priority 2018, published 2021).

The data set in a line: general procedure: Fmoc solid-phase peptide synthesis; Fmoc-Rink-amide polystyrene resin; HBTU/DIEA. Particulars: whole synthesis, scale 0.5 mmol.

On to “H-[2,6-dimethyl-L-tyrosyl]-D-Val-L-Val-D-Phe-L-Ser(β-Lac)-NH2”, for which the isolated mass is given as 190 mg. In addition, the isolated yield (from initial resin loading) amounted to 39%.
